Measured values as given in patent publication US10864285B2, “Methods for the diagnosis and treatment of Sjögren's syndrome” (The U.S.A., as represented by the Secretary, Department of …, priority 2012, dated 2020).

System: salivary glands of mice
Assay: Salivary gland morphology (H&E, trichrome) and AQP5 immunofluorescence
Format: in vivo, mouse
Details: AAV5BMP6 transduced vs GFP control vector treated mice

B1: BMP6: A member of the TGF-β superfamily of growth factors; added to cultured cells at 6 ng/ml (protein, UniProt P22004 375-513, looked up)
Bone morphogenetic protein 6: SASSRRRQQSRNRSTQSQDVARVSSASDYNSSELKTACRKHELYVSFQDLGWQDWIIAPKGYAANYCDGECSFPLNAHMNATNHAIVQTLVHLMNPEYVPKPCCAPTKLNAISVLYFDDNSNVILKKYRNMVVRACGCH
Extracellular matrix and acini morphology: thickening of the extracellular matrix surrounding the acini and enlarged acini
